Our source for the step yield values is patent US7994280 (dated 2011).

The data set can be described thus: general procedure: Fmoc solid-phase peptide synthesis; Sieber; diisopropylcarbodiimide (dithio-3,3'-dipropionic acid coupling). The settings on record: late stage modification step.

“(Mpa)-2-Har-Gly-Asp(tBu)-Trp(Boc)-Pro-Cys(S-tBu)-Sieber”: the step yield is reported as over 75%.
